Paper doi:10.1101/2021.11.02.467024
Like-named read-outs stand apart in the source and are kept apart here. These are yes or no findings as the source states them, for the method shown. Binding seen in cells or lysates may run through a third protein. Some entries that bind do so weakly or less than the wild type. Each block holds one substance with its values, some of them ahead of it.

The chains behind the UniProt entries cited, without tags or fusion partners. Where a name states a change or a piece, a line headed by the entry shows the natural chain unless it says otherwise. A line that says so, or that is headed by a name, gives the form on record, which may keep a tag or linker. Residues count along the entry.
UniProt Q15910: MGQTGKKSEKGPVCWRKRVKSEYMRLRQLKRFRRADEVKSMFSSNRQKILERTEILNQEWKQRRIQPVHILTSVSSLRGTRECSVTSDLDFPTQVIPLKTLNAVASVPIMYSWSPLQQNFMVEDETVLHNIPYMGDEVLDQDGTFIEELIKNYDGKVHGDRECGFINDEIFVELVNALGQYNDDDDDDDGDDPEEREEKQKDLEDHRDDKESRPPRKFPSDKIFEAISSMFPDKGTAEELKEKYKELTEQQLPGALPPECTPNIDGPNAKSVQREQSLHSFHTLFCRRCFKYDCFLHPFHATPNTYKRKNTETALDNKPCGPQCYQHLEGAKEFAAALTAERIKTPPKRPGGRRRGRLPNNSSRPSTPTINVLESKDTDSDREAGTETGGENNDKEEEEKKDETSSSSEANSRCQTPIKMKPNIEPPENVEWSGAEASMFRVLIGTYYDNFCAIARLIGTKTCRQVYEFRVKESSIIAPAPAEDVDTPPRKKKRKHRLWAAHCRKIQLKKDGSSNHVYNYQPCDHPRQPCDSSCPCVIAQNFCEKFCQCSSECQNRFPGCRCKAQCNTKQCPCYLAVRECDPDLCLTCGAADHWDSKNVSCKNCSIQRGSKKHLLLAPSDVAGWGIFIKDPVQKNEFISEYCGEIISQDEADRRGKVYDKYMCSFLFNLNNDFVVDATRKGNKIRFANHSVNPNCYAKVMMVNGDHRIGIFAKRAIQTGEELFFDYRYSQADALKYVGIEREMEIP
V5-EZH2 (1-170) deletion mutant: residues 1-170 of Q15910
V5-EZH2 (1-340) deletion mutant [clone 2] (Q15910-2, form named): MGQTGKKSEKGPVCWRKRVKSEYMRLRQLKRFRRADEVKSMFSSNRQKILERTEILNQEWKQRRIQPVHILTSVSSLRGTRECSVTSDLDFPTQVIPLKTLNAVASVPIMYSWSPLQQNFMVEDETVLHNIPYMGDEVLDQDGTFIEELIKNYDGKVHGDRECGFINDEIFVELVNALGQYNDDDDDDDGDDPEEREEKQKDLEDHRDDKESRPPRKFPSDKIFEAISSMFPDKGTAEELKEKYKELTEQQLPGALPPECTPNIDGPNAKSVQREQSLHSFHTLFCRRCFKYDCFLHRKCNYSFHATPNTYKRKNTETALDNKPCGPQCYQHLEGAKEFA
UniProt Q61188: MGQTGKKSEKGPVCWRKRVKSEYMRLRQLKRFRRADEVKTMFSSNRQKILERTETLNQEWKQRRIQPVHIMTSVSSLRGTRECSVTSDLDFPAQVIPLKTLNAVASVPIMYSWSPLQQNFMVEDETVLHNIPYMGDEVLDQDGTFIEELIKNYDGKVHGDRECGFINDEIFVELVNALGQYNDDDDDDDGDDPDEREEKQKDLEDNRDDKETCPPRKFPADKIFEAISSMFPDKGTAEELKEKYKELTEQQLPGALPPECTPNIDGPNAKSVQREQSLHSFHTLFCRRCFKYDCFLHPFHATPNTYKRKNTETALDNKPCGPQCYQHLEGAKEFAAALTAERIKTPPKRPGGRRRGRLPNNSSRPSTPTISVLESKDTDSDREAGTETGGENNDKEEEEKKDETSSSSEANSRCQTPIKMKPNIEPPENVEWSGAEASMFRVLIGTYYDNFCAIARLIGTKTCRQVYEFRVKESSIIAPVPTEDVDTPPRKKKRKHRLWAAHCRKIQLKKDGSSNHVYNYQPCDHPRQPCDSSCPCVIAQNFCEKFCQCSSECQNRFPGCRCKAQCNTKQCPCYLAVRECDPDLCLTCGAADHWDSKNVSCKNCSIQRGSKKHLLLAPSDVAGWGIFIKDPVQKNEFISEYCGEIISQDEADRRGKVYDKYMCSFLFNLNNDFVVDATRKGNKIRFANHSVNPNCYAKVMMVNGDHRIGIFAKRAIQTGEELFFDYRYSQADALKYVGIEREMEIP

Assays:
GST-EZH2 (1-170) (human) = GST-EZH2 (1-170) (human) (UniProt Q15910); test: pull-down
GST-EZH2 (1-340) (human) = GST-EZH2 (1-340) (human) (UniProt Q15910); test: pull-down
[1] = biological target: HA-tagged EZH2-WT (human) (UniProt Q15910); test: co-IP
[2] = biological target: Ezh2, endogenous in B16-F10 murine melanoma cells (mouse (endogenous in B16-F10)) (UniProt Q61188); test: co-IP
[3] = biological target: Ezh2, endogenous in B16-F10 murine melanoma cells (mouse (endogenous in B16-F10)) (UniProt Q61188); test: co-IP; remark: listed apart in the source
[4] = biological target: MYC/FLAG-tagged full length IMPDH2 (human) (UniProt P12268); test: co-IP

binding (GST-EZH2 (1-170) (human)): binds
binding (GST-EZH2 (1-340) (human)): binds
binding [1]: binds
Substance: V5-IMPDH2 (1-187), CBS domain of IMPDH2 (from UniProt P12268 1-187) (domain or fragment)

binding [2]: binds
binding [3]: binds
Substance: Impdh2, endogenous in B16-F10 murine melanoma cells (from UniProt P24547 1-514) (enzyme)

binding [4]: binds
Substance: V5-EZH2 (1-170) deletion mutant (from UniProt Q15910-2 1-170) (domain or fragment)

binding [4]: binds
Substance: V5-EZH2 (1-340) deletion mutant [clone 2] (from UniProt Q15910-2 1-340) (domain or fragment)
